# Where a name gives a salt, the structure may show the parent alone. The list shows a part of the results. Repeats in this data set agree poorly, so a single value says little.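 Cells: ReNCell VM human fetal ventral-midbrain neural progenitors, differentiated mitogen-free. Blinded raters compared doublecortin-stained (early neurons) or tyrosine hydroxylase-stained (dopaminergic neurons) images with untreated wells, where 0 means no change. After repeats and both raters were averaged, compounds scoring 2 or above became hits for retesting.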
# Tests used:
# ReNCell VM [1] = test: neuronal differentiation score (DCX+ cell fraction vs untreated, manual image score) (score (-3 to 3)); higher = more neuronal differentiation; conditions: 2 uM, 2 weeks
# ReNCell VM [2] = test: dopaminergic neuron differentiation score (TH+ cell fraction vs untreated, manual image score) (score (0 to 3)); higher = more TH+ dopaminergic neuron differentiation; conditions: 2 uM, 4 weeks, BDNF 10 ng/ml + GDNF 10 ng/ml
smiles,measurement,setting,value
CCCCNC(=O)[C@@H]1Cc2ccccc2N1C(=O)[C@@H](N)CC [Butabindide oxalate],neuronal differentiation score,ReNCell VM [1]; library: Tocriscreen,inactive: 0
same,dopaminergic neuron differentiation score,ReNCell VM [2]; library: Tocriscreen,inactive: 0
COc1ccc(C=C2NC(=O)C3Cc4ccccc4CN3C2=O)cc1 (stereo not drawn),neuronal differentiation score,ReNCell VM [1]; library: Natural,inactive: 0
same,dopaminergic neuron differentiation score,ReNCell VM [2]; library: Natural,inactive: 0
CC(=O)[C@H]1CC[C@H]2[C@@H]3CC=C4C[C@@H](O)CC[C@]4(C)[C@H]3CC[C@]12C,neuronal differentiation score,ReNCell VM [1]; library: Spectrum,inactive: 0
same,dopaminergic neuron differentiation score,ReNCell VM [2]; library: Spectrum,inactive: 0
CN(C(=O)CN(CCO)CC(=O)N(C)C(C)(C)Cc1ccccc1)C(C)(C)Cc1ccccc1,neuronal differentiation score,ReNCell VM [1]; library: Spectrum,inactive: 1
same,dopaminergic neuron differentiation score,ReNCell VM [2]; library: Spectrum,inactive: 0
O=C(NC(NC(=S)Nc1ccc(F)c([N+](=O)[O-])c1)C(Cl)(Cl)Cl)C(c1ccccc1)c1ccccc1 (stereo not drawn),neuronal differentiation score,ReNCell VM [1]; library: Tocriscreen,inactive: 0
same,dopaminergic neuron differentiation score,ReNCell VM [2]; library: Tocriscreen,inactive: 0
N=C(N)NCCN1CCCCCCC1,neuronal differentiation score,ReNCell VM [1]; library: Spectrum,inactive: 1
same,dopaminergic neuron differentiation score,ReNCell VM [2]; library: Spectrum,inactive: 0
CCN(CC)CCOC(=O)c1cc(Cl)c(N)cc1OC [SDZ 205-557 hydrochloride],neuronal differentiation score,ReNCell VM [1]; library: Tocriscreen,inactive: 0
same,dopaminergic neuron differentiation score,ReNCell VM [2]; library: Tocriscreen,inactive: 0
COC(=O)CC[C@@H](C)[C@H]1CC[C@H]2[C@@H]3[C@H](O)C[C@@H]4C[C@H](O)CC[C@]4(C)[C@H]3C[C@H](O)[C@]12C,neuronal differentiation score,ReNCell VM [1]; library: Spectrum,inactive: 0
same,dopaminergic neuron differentiation score,ReNCell VM [2]; library: Spectrum,inactive: 0
"C/C=C1\C(=O)C[C@H]2[C@@H]3CCC4=CC(=O)CC[C@]4(C)[C@H]3CC[C@]12C [(Z)-pregna-4,17(20)-diene-3,16-dione]",neuronal differentiation score,ReNCell VM [1]; library: Natural,inactive: -1
same,dopaminergic neuron differentiation score,ReNCell VM [2]; library: Natural,inactive: 0
N[C@@H](COP(=O)(O)O)C(=O)O,neuronal differentiation score,ReNCell VM [1]; library: Spectrum,inactive: 0
same,dopaminergic neuron differentiation score,ReNCell VM [2]; library: Spectrum,inactive: 0
Cc1ccc(N(CC2=NCCN2)c2cccc(O)c2)cc1 [Phentolamine hydrochloride],neuronal differentiation score,ReNCell VM [1]; library: Prestwick,inactive: 0
same,dopaminergic neuron differentiation score,ReNCell VM [2]; library: Prestwick,inactive: 0
CN1C(=O)CC(c2ccccc2)C1=O (stereo not drawn) [Phensuximide],neuronal differentiation score,ReNCell VM [1]; library: Prestwick,inactive: 0
same,dopaminergic neuron differentiation score,ReNCell VM [2]; library: Prestwick,inactive: 0
NC1(C(=O)O)CCCC1,neuronal differentiation score,ReNCell VM [1]; library: Spectrum,inactive: 0
same,dopaminergic neuron differentiation score,ReNCell VM [2]; library: Spectrum,inactive: 0
COc1ccc(-c2cc(=S)ss2)cc1 [Anethole-trithione],neuronal differentiation score,ReNCell VM [1]; library: Prestwick,inactive: 0
same,dopaminergic neuron differentiation score,ReNCell VM [2]; library: Prestwick,inactive: 0
CO[C@@H]1[C@@H](OC(N)=O)[C@@H](O)[C@H](Oc2ccc3c(O)c(NC(=O)c4ccc(O)c(CC=C(C)C)c4)c(=O)oc3c2C)OC1(C)C,neuronal differentiation score,ReNCell VM [1]; library: Spectrum,inactive: 0
same,dopaminergic neuron differentiation score,ReNCell VM [2]; library: Spectrum,inactive: 0
Nc1ccc(/N=N/c2ccccc2)c(N)n1 [Phenazopyridine hydrochloride],neuronal differentiation score,ReNCell VM [1]; library: Prestwick,inactive: 0
same,dopaminergic neuron differentiation score,ReNCell VM [2]; library: Prestwick,inactive: 1
Nc1cc(Cl)c(NC2=NCCN2)c(Cl)c1 [p-Aminoclonidine hydrochloride],neuronal differentiation score,ReNCell VM [1]; library: LOPAC,inactive: 0
same,dopaminergic neuron differentiation score,ReNCell VM [2]; library: LOPAC,inactive: 0
Cc1cc(C2CCCCC2)n(O)c(=O)c1,neuronal differentiation score,ReNCell VM [1]; library: Spectrum,inactive: 0
same,dopaminergic neuron differentiation score,ReNCell VM [2]; library: Spectrum,inactive: 0
CCCCCc1c2c(cc(O)c1C(=O)O)OC(=O)c1c(cc(OC)cc1C(=O)CCCC)O2 [lobaric acid],neuronal differentiation score,ReNCell VM [1]; library: Natural,inactive: 0
same,dopaminergic neuron differentiation score,ReNCell VM [2]; library: Natural,inactive: 0
"COc1ccccc1N1CCN(CCCNc2c(C)c(=O)n(C)c(=O)n2C)CC1 [Urapidil, 5-Methyl-]",neuronal differentiation score,ReNCell VM [1]; library: LOPAC,inactive: 0
same,dopaminergic neuron differentiation score,ReNCell VM [2]; library: LOPAC,inactive: 0
O=c1ccc2ccc(O[C@@H]3O[C@H](CO)[C@@H](O)[C@H](O)[C@H]3O)c(O)c2o1 [daphnin],neuronal differentiation score,ReNCell VM [1]; library: Natural,inactive: 0
same,dopaminergic neuron differentiation score,ReNCell VM [2]; library: Natural,inactive: 0
CCCCN1CCC(COC(=O)c2cc(Cl)c(N)c3c2OCCO3)CC1,neuronal differentiation score,ReNCell VM [1]; library: LOPAC,inactive: 0
same,dopaminergic neuron differentiation score,ReNCell VM [2]; library: LOPAC,inactive: 0
C=C1/C(=C\C=C2/CCC[C@]3(C)[C@@H]([C@H](C)/C=C/[C@@H](O)C4CC4)CC[C@@H]23)C[C@@H](O)C[C@@H]1O [Calcipotriene],neuronal differentiation score,ReNCell VM [1]; library: Prestwick,inactive: 0
same,dopaminergic neuron differentiation score,ReNCell VM [2]; library: Prestwick,inactive: 0
Cc1cc(C2CCCCC2)n(O)c(=O)c1 [Ciclopirox ethanolamine],neuronal differentiation score,ReNCell VM [1]; library: Prestwick,inactive: 0
same,dopaminergic neuron differentiation score,ReNCell VM [2]; library: Prestwick,inactive: 0
NCCS [Cysteamine hydrochloride],neuronal differentiation score,ReNCell VM [1]; library: LOPAC,inactive: 1
same,dopaminergic neuron differentiation score,ReNCell VM [2]; library: LOPAC,inactive: 0
O=c1c(O)c(-c2ccc(O)c(O)c2)oc2c(O[C@@H]3O[C@H](CO)[C@@H](O)[C@H](O)[C@H]3O)c(O)cc(O)c12,neuronal differentiation score,ReNCell VM [1]; library: Spectrum,inactive: 0
same,dopaminergic neuron differentiation score,ReNCell VM [2]; library: Spectrum,inactive: 0
CC(Cc1cccc(C(F)(F)F)c1)NCCOC(=O)c1ccccc1 (stereo not drawn) [Benfluorex hydrochloride],neuronal differentiation score,ReNCell VM [1]; library: Prestwick,inactive: 0
same,dopaminergic neuron differentiation score,ReNCell VM [2]; library: Prestwick,inactive: 1
Cc1cc(I)ccc1Nc1c(C(=O)NOCC2CC2)cc(F)c(F)c1F,neuronal differentiation score,ReNCell VM [1]; library: Tocriscreen,inactive: 0
same,dopaminergic neuron differentiation score,ReNCell VM [2]; library: Tocriscreen,inactive: 0
O=C(O)CCNC(=O)c1ccc(/N=N/c2ccc(O)c(C(=O)O)c2)cc1,neuronal differentiation score,ReNCell VM [1]; library: Spectrum,inactive: 0
same,dopaminergic neuron differentiation score,ReNCell VM [2]; library: Spectrum,inactive: 0

# Some of the entries so far, as tab-separated lines:
smiles	measurement	setting	value
CCN(CC)CCOC(=O)c1cc(Cl)c(N)cc1OC [SDZ 205-557 hydrochloride]	neuronal differentiation score	ReNCell VM [1]; library: Tocriscreen	inactive: 0
COc1ccc(-c2cc(=S)ss2)cc1 [Anethole-trithione]	dopaminergic neuron differentiation score	ReNCell VM [2]; library: Prestwick	inactive: 0
Nc1cc(Cl)c(NC2=NCCN2)c(Cl)c1 [p-Aminoclonidine hydrochloride]	dopaminergic neuron differentiation score	ReNCell VM [2]; library: LOPAC	inactive: 0
